{"source": "patent US20130022692A1", "about": "“Expression Modulator For Clock Gene Period” (SHISEIDO COMPANY, LTD., priority 2010, published 2013)", "tested_on": "Period1 gene", "experiment": "Period1 gene expression in cultured human skin fibroblastic cells (RT-PCR)", "format": "cell-based", "conditions": "peak at 2 hours after stimulation; result in words", "procedure": "As the cultured human fibroblastic cells, fibroblastic cells from normal human skin were purchased (Cell Application, Inc.) and used in the experiments. They were inoculated in DMEM medium supplemented with 10% FBS, 20 mM HEPES, Glutamax and antibacterial agents and cultured at 37° C. in 5% CO2. On the 6th day of culture, 50 ng/mL of cortisol or 10 μM of forskolin was added to each wells, and the samples were harvested at various times after time 0, which was defined as the time immediately after the addition of cortisol or forskolin. RNA was extracted from the cells with a commercially available RNA extraction kit, and the amounts of expression of the intended genes were measured by RT-PCR technology using commercially available PCR primers (Perfect Real Time Primer, Takara Bio). As for clock genes, amounts of expression of Period1 and Bmal1, which are involved in the core system, were determined. Similarly, the amounts of expression of a housekeeping gene RPLP0 were quantified and used as an internal standard to calculate the relative expression of the intended genes to RPLP0. […] Test substances were evaluated for the expression modulating effect on a Period gene based on the amount of gene expression at 2 hours after stimulation. […]", "note": "For at least one compound, name, drawing or mass did not settle the structure."}
{"smiles": "C=C[C@@]1(C)CC(=O)[C@]2(O)[C@@]3(C)[C@@H](O)CCC(C)(C)[C@@H]3[C@H](O)[C@H](OC(C)=O)[C@@]2(C)O1", "note": "[forskolin]", "values": [{"measurement": "Induction of expression rhythm and increase of Period1 gene expression", "result": "significantly increase amounts of gene expression of Period1"}]}
